Data from patent US20250297116A1, “PRECURSOR COMPOUNDS FOR MOLECULAR COATINGS” (Apeel Technology, Inc., priority 2015, published 2025).
Some compounds share one wording; it may come from a single statement.

Tested on: blueberries
Test: Average daily mass loss rate and residues of coated blueberries
Conditions: bag coated, 10 mg/mL in ethanol

CCCCCCCCCCCCCCCC(=O)OCC(O)CO (stereo not shown) [PA-1G, 2,3-dihydroxypropan-1-yl palmitate]
visible residues on surface: heavy (wide-spread visible residues covering most or all of the surface)

CCCCCCCCCCCCCCCC(=O)OC(CO)CO [PA-2G, 1,3-dihydroxypropan-2-yl palmitate]
visible residues on surface: heavy (wide-spread visible residues covering most or all of the surface)

CCCCCCCCCCCCCCCCCC(=O)OCC(O)CO (stereo not shown) [SA-1G, 2,3-dihydroxypropan-1-yl octadecanoate]
visible residues on surface: heavy (wide-spread visible residues covering most or all of the surface)

CCCCCCCCCCCCCCCCCC(=O)OC(CO)CO [SA-2G, 1,3-dihydroxypropan-2-yl octadecanoate]
visible residues on surface: heavy (wide-spread visible residues covering most or all of the surface)
